Laboratory results: EP4551202B1, “NAPHTHAZARIN DERIVATIVES FOR TREATMENT OF ONYCHOMYCOSIS” (Christian-Albrechts-Universität zu Kiel, priority 2022, dated 2024)
Like-named read-outs stand apart in the source and are kept apart here.

Tests used:
[1] = system: Trichophyton rubrum I/95 (patient isolate); assay: Anti-mycotic activity assay in pathogen suspension (optical density at 600 nm); assay type: cell-based; conditions: light or radiation study; antimycotic activity against Trichophyton rubrum; with irradiation, peak wavelength 519 nm; read-out: Tru IC50 with irradiation
Description: For determining the IC50 of the anti-mycotic activity of compounds, the human pathogen Candida albicans, strain DSM 1386, or clinical isolates of Trichophyton rubrum obtained from patient samples were used.
Trichophyton rubrum I/95 (patient isolate) was cultivated for 1 week on GPY (0.1% glucose, 0.05% petone, 0.01 yeast extract, 1.5% agar) at 28°C. A suspension of 5x10^4 spores/ml in M186 (1% glucose, 0.5% peptone from soybeans, 0.3% yeast extract, 0.3% malt extract) was prepared and added to each well of a microplate containing one of the pharmaceutical compounds, which were pipetted in triplicates for a final concentration of […] and 100 µM. The wells were irradiated using the custom-made light source with a peak wavelength of 519 nm. Handling of the test compounds and well plates took place in a darkened room equipped with a red-light LED to protect them from green light. After incubation for 72 h at 28 °C and 120 rpm the optical density at 600 nm was measured using the microplate reader Tecan Infinite M200.

[2] = system: Trichophyton rubrum I/95 (patient isolate); assay: as above; assay type: cell-based; conditions: light or radiation study; antimycotic activity against Trichophyton rubrum; without irradiation (dark); read-out: Tru IC50 without irradiation

IC50 [1]: 109 ± 51 nM | IC50 [2]: 114 ± 61 nM
Compound: Clc1ccccc1C(c1ccccc1)(c1ccccc1)n1ccnc1 [Clotrimazol, reference compound]
